These are yes or no findings as the source states them, for the method shown. Binding seen in cells or lysates may run through a third protein. A result given as binding can be weak or reduced; the word gives no strength.
What follows are binders tested against SNC1^E552K-mYFP (auto-active SNC1) (Arabidopsis thaliana) (assay: co-IP).

Row | Binder | binding
1 | IMPORTIN-α7-3xHA-StrepII (protein, UniProt Q9M9X7 1-528) MKGGETMSVRRSGYKAVVDGVGGRRRREDDMVEIRKAKREESLLKKRREALPHSPSADSLDQKLISCIWSDERDLLIEATTQIRTLLCGEMFNVRVEEVIQAGLVPRFVEFLTWDDSPQLQFEAAWALTNIASGTSENTEVVIDHGAVAILVRLLNSPYDVVREQVVWALGNISGDSPRCRDIVLGHAALPSLLLQLNHGAKLSMLVNAAWTLSNLCRGKPQPPFDQVSAALPALAQLIRLDDKELLAYTCWALVYLSDGSNEKIQAVIEANVCARLIGLSIHRSPSVITPALRTIGNIVTGNDSQTQHIIDLQALPCLVNLLRGSYNKTIRKEACWTVSNITAGCQSQIQAVFDADICPALVNLLQNSEGDVKKEAAWAICNAIAGGSYKQIMFLVKQECIKPLCDLLTCSDTQLVMVCLEALKKILKVGEVFSSRHAEGIYQCPQTNVNPHAQLIEEAEGLEKIEGLQSHENNDIYETAVKILETYWMEEEEEEDQEQQDMIYFPVDNFANMPTSSGTLSEMHCGP | binds weakly
2 | IMPORTIN-α5-3xHA-StrepII (protein, UniProt Q9FJ09 1-519) MSLRPSTKTEIRRIRYKVSVDAEEGRRRREDFLVEIRKSKRNENLMKKRRVKVLPPDYKLISNDPFESLLEIANMITGVFSDDPSLQLEYTTRFRVVLSFDRSPPTDNVIKSGVVPRFVEFLKKDDNPKLQFEAAWALTNIASGASEHTKVVIDHGVVPLFVQLLASPDDDVREQAIWGLGNVAGDSIQCRDFVLNSGAFIPLLHQLNNHATLSILRNATWTLSNFFRGKPSPPFDLVKHVLPVLKRLVYSDDEQVLIDACWALSNLSDASNENIQSVIEAGVVPRLVELLQHASPVVLVPALRCIGNIVSGNSQQTHCVINCGVLPVLADLLTQNHMRGIRREACWTISNITAGLEEQIQSVIDANLIPSLVNLAQHAEFDIKKEAIWAISNASVGGSPNQIKYLVEQNCIKALCDILVCPDLRIILVSLGGLEMILIAGEVDKNLRDVNCYSQMIEDAEGLEKIENLQHHGNNEIYEKAVKILQTYGLVEEDGRLVEEEDEGGDGCSHPEFQFDFSR | binds weakly
3 | IMPORTIN-α8-3xHA-StrepII (protein, UniProt Q9FJ92 1-441) MAWKTEVNEVSDDIIDGLWSDDPPLQLESVTKIRRITSQRDISCVIRSGVVPRLVQLLKNQVFPKLQYEVAWALTNIAVDNPGVVVNNNAVPVLIQLIASPKDYVREQAIWTLSNVAGHSIHYRDFVLNSGVLMPLLRLLYKDTTLRIATWALRNLCRGKPHPAFDQVKPALPALEILLHSHDEDVLKNACMALCHLSEGSEDGIQSVIEAGFVPKLVQILQLPSPVVLVPALLTIGAMTAGNHQQTQCVINSGALPIISNMLTRNHENKIKKCACWVISNITAGTKEQIQSVIDANLIPILVNLAQDTDFYMKKEAVWAISNMALNGSHDQIKYMAEQSCIKQLCDILVYSDERTTILKCLDGLENMLKAGEAEKNSEDVNPYCLLIEDAEGLEKISKLQMNKNDDIYEKAYKILVTNWFEEDDENNNNNVRCDDVDFQV | binds weakly
4 | IMPORTIN-α9-3xHA-StrepII (protein, UniProt F4KF65 1-519) MADDGSASNRRDPIKSSVGNVAGQRRRKQAVTVAKERRELLVRAKRLCRVGTNGDVEDALVENEMMVDEEQPILEAQASKSVEELKSAVQYQGKGAMQKRVTALRELRRLLSKSEFPPVEAALRAGAIPLLVQCLSFGSPDEQLLESAWCLTNIAAGKPEETKALLPALPLLIAHLGEKSSAPVAEQCAWAIGNVAGEGEDLRNVLLSQGALPPLARMIFPDKGSTVRTAAWALSNLIKGPESKAAAQLVKIDGILDAILRHLKKTDEETATEIAWIIVYLSALSDIATSMLLKGGILQLLIDRLATSSSLQLLIPVLRSLGNFVAVDPKAVLTILIREQNTEESIIGVLAKCLRSEHRVLKKEAAWVLSNIAAGSIEHKRMIHSTEVMPLLLRILSTSPFDIRKEVAYVLGNLCVESAEGDRKPRIIQEHLVSIVSGGCLRGFIELVRSPDIEAARLGLQFIELVLRGMPNGEGPKLVEGEDGIDAMERFQFHENEELRVMANSLVDKYFGEDYGIDE | binds weakly
5 | IMPORTIN-α6-3xHA-StrepII (protein, UniProt Q9FWY7 1-538) MSYKPSAKTEVRRNRYKVSVDADEGRRRREDNMVEIRKNKREENLQKKRREGFNPSMASQPGQDFSSSLPTETRLENIQQMIAGVMSEDRDLQLEATASFRRLLSIERNPPINEVVQSGVVPHIVQFLSRDDFTQLQFEAAWALTNIASGTSENTRVIIDSGAVPLFVKLLSSASEEVREQAVWALGNVAGDSPKCRDHVLSCEAMMSLLAQFHEHSKLSMLRNATWTLSNFCRGKPQPAFEQTKAALPALERLLHSTDEEVLTDASWALSYLSDGTNEKIQTVIDAGVIPRLVQLLAHPSPSVLIPALRTIGNIVTGDDIQTQAVISSQALPGLLNLLKNTYKKSIKKEACWTISNITAGNTSQIQEVFQAGIIRPLINLLEIGEFEIKKEAVWAISNATSGGNHDQIKFLVSQGCIRPLCDLLPCPDPRVVTVTLEGLENILKVGEAEKNLGNTGNDNLYAQMIEDADGLDKIENLQSHDNNEIYEKAVKILESYWAADDEEEDIGGVDAPENVQSSGFQFGNQSGNAPTGGFNFG | binds weakly

Source: doi:10.1101/2020.05.09.084020
